Not every detail of the peptide structures is certain; ends, links or a residue may be inferred. Ends that are not written are not given here.
How the values were obtained:
MI rats = assay: Effect on heart function (echocardiography EF) in myocardial infarction (MI) rats; assay type: in vivo, rat; details: 30 nM
normal rats = assay: Effect on heart function (echocardiography EF) in normal rats; assay type: in vivo, rat; details: for EF compared to baseline (BL) and normal saline (NS) (in words): monitored to 120 min
human APJ [1] = target: T1, human APJ (Homo sapiens, UniProt P35414); assay: APJ receptor binding assay (competitive radioligand binding); parameters: purchased Perkin Elmer, Waltham, Mass; host or cells: transfected CHO cells (membrane fraction); details: competition with 125I-labelled [Glp65, Nle75, Tyr77]-apelin13 probe; membrane fraction from transfected CHO cells
T1 sequence (P35414 1-380): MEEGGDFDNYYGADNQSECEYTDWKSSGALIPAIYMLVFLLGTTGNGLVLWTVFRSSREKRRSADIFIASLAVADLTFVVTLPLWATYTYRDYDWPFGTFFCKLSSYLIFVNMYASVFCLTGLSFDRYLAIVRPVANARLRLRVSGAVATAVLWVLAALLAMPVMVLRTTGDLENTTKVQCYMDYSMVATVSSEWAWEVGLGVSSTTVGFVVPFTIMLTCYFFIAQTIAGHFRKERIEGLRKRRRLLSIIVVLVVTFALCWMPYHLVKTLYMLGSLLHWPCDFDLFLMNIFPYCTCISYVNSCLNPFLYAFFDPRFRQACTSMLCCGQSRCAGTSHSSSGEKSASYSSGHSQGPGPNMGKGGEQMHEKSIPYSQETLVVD
Description: The binding was performed using competition with ^125I-labelled [Glp^65, Nle^75, Tyr^77]-apelin13 probe for binding to the APJ receptor in a membrane fraction from the transfected CHO cells (Perkin Elmer, Waltham, Mass.). Serially diluted peptide was incubated with membrane and probe for 1 hour at room temperature. The mixture was then filtered over a 1.2 um glass fiber type C filterplate (Millipore Corp., Billerica, Mass.), preblocked with 0.5% polyethylenimine. The plate was washed 4 times with 200 ul ice cold binding buffer and then another 4 times with ice cold 50 mM Tris-HCl, pH7.4, dried and counted with scintillation fluid. The data was analyzed with Graphpad Prism 4 (GraphPad Software, Inc, La Jolla, Calif.) using nonlinear regression.

human APJ [2] = target: T1, human APJ; assay: Intracellular cAMP measurement: inhibition of forskolin-mediated cAMP production in HEK293-APJ#3 cells; assay type: cell-based; parameters: host or cells: HEK293 (clone HEK293-APJ#3); details: 15 minute incubation, read-out: IC50, suppression of forskolin-mediated cAMP production

H-LVQPRGSRNGPGPWQGGRRKFRRQRPRLSHKGPMPF [apelin-36]
time after end of IV infusion at which EF was not significantly different from BL (MI rats): 40 min | time after end of IV infusion at which EF was not significantly different from the NS group (MI rats): 100 min | Peak EF values (MI rats; 20 min IV infusion, 20 min time point): 30% | EF compared to baseline (BL) and normal saline (NSMI) (in words) (MI rats; 20 min IV infusion, monitored to 120 min): not significantly different from BL post 50 min and was not significantly different from the NSMI post 60 min | EF compared to baseline (BL) and normal saline (NS) (in words) (normal rats; 30 nM (low dose), 20 min IV infusion): not significantly different from BL and NS at 50 min | EF compared to baseline (BL) and normal saline (NS) (in words) (normal rats; 300 nM (high dose), 20 min IV infusion): not significantly different from BL post at 50 min, and was not significantly from NS post 60 min | time after end of IV infusion at which EF was not significantly different from baseline (normal rats; high dose (300 nM)): 40 min | time after end of IV infusion at which EF was not significantly different from baseline or NS group (normal rats; low dose (30 nM)): 30 min | EF values (normal rats; same dose (30 nM), 20 min IV infusion, peak at 20 min time point): 18% | Ki (human APJ [1]): 0.05 nM | IC50 (human APJ [2]): 1 nM

From patent US20140142049A1, “PEGYLATED APELIN AND USES THEREOF” (priority 2011, published 2014)
